# Counter-ions that a name gives are not always drawn. Some of the results follow. Hit calls seldom repeat between salt and free forms of one compound.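 Kinases, fused to nanoluciferase, were expressed in K562 cells; luminescence was measured every 4 h from 2 to 18 h as percent of control (DMSO = 100%, positive control = 0%). A time point is decreased if signal falls significantly (2 sigma). Hits were called by the authors by a rule that is not shown; the count of time points alone does not decide it.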
# Sequences of proteins named here, by UniProt entry; tags and fusion partners are left off. A change or cut given only in a name is not applied to a line headed by its entry.
# UniProt O96013: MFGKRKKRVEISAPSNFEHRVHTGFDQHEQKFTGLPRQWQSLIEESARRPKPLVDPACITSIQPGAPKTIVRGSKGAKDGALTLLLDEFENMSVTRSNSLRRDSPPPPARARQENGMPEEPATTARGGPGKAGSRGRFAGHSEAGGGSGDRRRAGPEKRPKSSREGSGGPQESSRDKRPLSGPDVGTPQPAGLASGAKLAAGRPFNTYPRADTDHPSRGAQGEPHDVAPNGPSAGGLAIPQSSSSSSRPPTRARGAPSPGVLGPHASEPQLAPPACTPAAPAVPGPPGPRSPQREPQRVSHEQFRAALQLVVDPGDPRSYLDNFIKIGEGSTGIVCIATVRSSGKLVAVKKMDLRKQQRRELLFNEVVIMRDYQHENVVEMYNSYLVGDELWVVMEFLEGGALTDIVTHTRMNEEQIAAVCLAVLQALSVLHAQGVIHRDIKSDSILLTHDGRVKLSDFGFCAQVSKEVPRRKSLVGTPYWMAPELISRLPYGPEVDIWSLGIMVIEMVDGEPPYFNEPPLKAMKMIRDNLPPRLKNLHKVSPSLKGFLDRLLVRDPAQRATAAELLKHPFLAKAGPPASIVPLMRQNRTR
# UniProt Q96KB5: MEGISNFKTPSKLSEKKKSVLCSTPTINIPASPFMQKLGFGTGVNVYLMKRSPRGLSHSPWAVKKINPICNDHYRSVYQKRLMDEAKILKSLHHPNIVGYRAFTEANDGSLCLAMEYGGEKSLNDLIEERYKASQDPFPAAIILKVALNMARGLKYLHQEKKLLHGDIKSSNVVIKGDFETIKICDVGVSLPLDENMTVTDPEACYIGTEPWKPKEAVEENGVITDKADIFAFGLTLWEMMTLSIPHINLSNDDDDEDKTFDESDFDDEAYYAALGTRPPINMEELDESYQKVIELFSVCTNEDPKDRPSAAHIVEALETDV
# UniProt P09619, whole entry: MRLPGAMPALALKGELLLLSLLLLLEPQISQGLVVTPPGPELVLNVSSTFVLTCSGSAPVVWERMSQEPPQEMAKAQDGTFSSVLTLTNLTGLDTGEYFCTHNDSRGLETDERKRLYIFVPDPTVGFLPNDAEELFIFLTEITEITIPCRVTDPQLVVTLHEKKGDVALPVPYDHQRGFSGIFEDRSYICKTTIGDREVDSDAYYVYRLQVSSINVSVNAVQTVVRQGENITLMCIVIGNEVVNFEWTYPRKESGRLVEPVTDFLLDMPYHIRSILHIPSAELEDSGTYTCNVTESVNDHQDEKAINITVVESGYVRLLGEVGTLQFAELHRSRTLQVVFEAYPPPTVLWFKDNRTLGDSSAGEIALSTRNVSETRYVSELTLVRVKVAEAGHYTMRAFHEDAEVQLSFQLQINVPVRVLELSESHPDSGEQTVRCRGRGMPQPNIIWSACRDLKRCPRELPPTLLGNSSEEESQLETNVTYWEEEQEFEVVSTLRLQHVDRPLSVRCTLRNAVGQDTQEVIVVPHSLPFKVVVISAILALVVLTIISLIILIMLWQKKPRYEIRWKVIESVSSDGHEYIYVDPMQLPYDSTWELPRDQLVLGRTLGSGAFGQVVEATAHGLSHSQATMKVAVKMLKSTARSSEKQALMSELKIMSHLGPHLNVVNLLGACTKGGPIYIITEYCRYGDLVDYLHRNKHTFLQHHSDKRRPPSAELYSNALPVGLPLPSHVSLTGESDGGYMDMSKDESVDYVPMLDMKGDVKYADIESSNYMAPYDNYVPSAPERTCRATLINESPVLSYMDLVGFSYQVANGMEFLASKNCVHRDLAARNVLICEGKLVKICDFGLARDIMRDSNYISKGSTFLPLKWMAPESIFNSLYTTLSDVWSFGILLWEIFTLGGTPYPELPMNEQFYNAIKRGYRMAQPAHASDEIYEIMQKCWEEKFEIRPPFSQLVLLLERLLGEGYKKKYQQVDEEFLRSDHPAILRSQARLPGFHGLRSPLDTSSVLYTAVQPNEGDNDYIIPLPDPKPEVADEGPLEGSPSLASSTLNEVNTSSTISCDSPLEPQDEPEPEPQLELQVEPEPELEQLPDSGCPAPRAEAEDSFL
# UniProt Q15118, whole entry, looked up: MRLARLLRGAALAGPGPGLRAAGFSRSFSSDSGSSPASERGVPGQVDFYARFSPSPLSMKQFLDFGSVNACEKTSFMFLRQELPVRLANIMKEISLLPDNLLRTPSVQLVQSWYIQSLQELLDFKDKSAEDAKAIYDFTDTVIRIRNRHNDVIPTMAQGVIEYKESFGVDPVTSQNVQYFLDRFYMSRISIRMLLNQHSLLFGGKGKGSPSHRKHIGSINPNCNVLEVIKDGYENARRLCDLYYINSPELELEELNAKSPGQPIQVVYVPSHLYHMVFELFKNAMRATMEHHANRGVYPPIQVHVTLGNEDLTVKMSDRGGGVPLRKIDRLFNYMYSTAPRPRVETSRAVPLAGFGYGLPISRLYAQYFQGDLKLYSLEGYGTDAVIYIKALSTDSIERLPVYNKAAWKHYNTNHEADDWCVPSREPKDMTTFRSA
# UniProt P42356, whole entry, looked up: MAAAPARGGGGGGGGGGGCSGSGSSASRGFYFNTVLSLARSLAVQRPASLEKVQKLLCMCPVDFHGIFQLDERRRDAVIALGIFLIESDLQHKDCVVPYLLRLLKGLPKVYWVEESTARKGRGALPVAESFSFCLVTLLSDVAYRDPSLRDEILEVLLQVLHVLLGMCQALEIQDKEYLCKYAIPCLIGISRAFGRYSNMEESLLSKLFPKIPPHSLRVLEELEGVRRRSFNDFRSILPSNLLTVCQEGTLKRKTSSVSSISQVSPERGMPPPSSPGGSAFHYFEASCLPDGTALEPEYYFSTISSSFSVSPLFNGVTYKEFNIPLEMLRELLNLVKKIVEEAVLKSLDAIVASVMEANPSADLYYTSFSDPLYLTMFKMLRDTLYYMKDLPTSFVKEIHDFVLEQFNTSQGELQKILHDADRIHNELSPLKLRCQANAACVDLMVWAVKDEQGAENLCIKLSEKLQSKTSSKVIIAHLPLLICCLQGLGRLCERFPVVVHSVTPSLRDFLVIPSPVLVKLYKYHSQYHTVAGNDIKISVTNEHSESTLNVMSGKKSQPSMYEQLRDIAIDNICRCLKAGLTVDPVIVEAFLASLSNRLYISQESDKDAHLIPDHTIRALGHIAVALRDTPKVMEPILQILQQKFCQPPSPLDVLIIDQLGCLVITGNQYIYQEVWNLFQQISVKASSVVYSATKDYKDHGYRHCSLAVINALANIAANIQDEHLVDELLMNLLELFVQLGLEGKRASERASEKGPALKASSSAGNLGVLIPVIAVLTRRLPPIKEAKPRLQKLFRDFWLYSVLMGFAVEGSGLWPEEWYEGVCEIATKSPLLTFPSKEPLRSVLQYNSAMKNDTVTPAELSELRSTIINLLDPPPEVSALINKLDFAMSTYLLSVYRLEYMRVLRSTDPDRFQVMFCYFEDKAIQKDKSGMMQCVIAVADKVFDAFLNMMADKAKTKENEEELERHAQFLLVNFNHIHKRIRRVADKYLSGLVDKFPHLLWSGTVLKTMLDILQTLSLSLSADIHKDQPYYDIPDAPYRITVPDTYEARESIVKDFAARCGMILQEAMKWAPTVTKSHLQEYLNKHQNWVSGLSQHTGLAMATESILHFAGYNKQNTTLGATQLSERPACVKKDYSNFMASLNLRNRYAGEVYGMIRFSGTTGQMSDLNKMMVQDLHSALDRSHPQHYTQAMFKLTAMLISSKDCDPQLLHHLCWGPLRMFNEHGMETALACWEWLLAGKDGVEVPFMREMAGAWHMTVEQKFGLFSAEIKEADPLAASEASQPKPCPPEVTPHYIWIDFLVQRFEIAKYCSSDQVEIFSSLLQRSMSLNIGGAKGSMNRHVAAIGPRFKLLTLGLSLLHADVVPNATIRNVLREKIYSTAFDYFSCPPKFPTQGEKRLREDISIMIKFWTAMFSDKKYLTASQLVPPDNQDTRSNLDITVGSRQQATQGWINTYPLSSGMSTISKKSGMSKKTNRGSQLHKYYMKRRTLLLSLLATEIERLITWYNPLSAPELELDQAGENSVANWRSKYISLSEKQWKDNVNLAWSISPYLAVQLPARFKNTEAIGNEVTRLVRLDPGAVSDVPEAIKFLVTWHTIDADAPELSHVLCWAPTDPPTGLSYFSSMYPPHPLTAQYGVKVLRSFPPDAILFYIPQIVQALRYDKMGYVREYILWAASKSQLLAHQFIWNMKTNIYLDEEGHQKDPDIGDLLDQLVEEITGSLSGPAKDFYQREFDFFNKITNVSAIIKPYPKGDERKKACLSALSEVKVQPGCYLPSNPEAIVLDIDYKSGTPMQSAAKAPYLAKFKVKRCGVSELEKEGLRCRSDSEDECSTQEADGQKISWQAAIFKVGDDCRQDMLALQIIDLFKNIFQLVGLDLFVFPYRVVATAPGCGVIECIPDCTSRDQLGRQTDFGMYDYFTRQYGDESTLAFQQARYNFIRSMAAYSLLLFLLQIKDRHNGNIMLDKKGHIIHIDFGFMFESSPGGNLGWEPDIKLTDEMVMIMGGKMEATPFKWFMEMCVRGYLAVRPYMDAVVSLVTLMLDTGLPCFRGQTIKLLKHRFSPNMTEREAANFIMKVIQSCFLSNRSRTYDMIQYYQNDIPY
# UniProt Q9UBF8: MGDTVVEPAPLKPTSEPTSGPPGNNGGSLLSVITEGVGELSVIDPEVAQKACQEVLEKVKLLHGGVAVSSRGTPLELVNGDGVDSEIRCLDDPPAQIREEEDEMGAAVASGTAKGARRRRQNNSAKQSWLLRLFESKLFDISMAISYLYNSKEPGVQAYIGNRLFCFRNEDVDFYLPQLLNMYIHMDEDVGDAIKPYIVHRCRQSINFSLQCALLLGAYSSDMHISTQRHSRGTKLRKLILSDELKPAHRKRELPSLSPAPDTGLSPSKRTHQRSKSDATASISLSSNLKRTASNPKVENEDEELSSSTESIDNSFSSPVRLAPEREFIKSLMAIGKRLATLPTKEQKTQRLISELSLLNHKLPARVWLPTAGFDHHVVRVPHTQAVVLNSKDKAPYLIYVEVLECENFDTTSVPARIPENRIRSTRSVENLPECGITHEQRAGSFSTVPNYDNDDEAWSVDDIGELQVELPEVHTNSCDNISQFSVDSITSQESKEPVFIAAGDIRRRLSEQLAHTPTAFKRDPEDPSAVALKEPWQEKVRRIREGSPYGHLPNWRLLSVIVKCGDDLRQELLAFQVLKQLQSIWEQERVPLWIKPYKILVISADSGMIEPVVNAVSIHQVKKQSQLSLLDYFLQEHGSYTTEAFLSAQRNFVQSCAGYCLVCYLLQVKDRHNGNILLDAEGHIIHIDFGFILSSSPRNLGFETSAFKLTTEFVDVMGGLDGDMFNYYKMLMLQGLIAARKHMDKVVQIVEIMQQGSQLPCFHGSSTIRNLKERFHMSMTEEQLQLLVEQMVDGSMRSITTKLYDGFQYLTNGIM
# UniProt P53350, whole entry: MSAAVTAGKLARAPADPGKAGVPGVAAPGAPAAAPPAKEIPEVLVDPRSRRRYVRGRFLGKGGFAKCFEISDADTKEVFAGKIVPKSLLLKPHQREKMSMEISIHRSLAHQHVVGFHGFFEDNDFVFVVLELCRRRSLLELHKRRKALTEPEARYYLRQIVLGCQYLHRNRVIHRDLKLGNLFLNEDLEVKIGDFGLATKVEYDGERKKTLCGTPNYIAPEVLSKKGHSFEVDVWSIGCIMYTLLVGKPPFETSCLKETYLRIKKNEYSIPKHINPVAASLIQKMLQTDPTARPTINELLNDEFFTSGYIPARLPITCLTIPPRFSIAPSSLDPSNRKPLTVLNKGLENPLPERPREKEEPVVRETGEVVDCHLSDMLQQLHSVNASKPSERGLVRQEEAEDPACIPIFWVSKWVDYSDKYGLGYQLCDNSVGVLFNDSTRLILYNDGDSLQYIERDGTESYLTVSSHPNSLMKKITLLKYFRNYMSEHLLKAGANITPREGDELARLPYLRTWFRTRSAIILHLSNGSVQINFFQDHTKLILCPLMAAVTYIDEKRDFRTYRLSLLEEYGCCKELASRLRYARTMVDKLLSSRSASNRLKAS
# UniProt Q13131: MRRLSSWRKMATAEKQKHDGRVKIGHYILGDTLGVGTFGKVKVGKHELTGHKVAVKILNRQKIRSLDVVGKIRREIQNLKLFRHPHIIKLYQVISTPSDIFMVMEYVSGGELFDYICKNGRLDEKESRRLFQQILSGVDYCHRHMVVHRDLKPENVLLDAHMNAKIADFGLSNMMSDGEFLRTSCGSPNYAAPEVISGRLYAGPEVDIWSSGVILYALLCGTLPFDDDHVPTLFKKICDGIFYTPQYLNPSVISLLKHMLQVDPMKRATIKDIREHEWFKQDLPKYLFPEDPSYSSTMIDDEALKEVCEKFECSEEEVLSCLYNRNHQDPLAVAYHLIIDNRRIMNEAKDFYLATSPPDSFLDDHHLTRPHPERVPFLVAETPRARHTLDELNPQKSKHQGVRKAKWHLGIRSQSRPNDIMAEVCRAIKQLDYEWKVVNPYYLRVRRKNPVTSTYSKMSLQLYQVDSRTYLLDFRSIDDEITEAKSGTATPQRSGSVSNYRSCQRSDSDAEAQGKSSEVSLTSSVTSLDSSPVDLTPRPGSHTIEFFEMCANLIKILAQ
# Tests used:
# Test in all cases: number of time points (of 5) at which kinase-Nluc abundance scored as decreased, DMSO-normalised (count); higher = more persistent destabilization
# Details in all cases: K562; 2-18 h
# NTRK3 = NTRK3 (UniProt Q16288)
# PAK4 = PAK4 (UniProt O96013)
# PBK = PBK (UniProt Q96KB5)
# PDGFRB = PDGFRB (UniProt P09619)
# PDK1 = PDK1 (UniProt Q15118)
# PDPK1 = PDPK1 (UniProt O15530)
# PIK4CA = PIK4CA (UniProt P42356)
# PIK4CB = PIK4CB (UniProt Q9UBF8)
# PLK1 = PLK1 (UniProt P53350)
# PRKAA1 = PRKAA1 (UniProt Q13131)
Compound,number of time points (NTRK3),number of time points (PAK4),number of time points (PBK),number of time points (PDGFRB),number of time points (PDK1),number of time points (PDPK1),number of time points (PIK4CA),number of time points (PIK4CB),number of time points (PLK1),number of time points (PRKAA1)
CNC(=O)c1c(F)cccc1Nc1nc(Nc2cc3c(cc2OC)CCN3C(=O)CN(C)C)nc2[nH]ccc12 (10 µM),0,0,0,0,0,0,0,0,0,0
O=C(NCCN1CCOCC1)c1cc2c(Oc3ccc(NC(=O)C4(C(=O)Nc5ccc(F)cc5)CC4)cc3)ccnc2[nH]1 [Tyrosine kinase inhibitor] (10 µM),0,0,0,1,0,0,0,0,0,0
O=C1Nc2ccc(C(=O)c3ccco3)cc2C1=Cc1cc(Cl)c(O)c(Cl)c1 (2.5 µM),0,0,2,0,0,3,0,1,4,0
CC(=O)c1c(C)cc2cccc(O)c2c1O [Nepodin] (10 µM),0,0,0,0,0,0,0,0,0,0
CCc1c(C(=O)NNC(=O)C(O)c2cc(F)cc(F)c2)ccc(O)c1C (stereo not drawn) (10 µM),0,0,0,0,0,0,0,0,0,0
Cn1cc(-c2ccc3c(c2)CCN3C(=O)Cc2cccc(C(F)(F)F)c2)c2c(N)ncnc21 (2.5 µM),0,0,0,0,0,0,0,0,0,0
COc1cc(Nc2ncc(F)c(Nc3ccc4c(n3)N(COP(=O)(O)O)C(=O)C(C)(C)O4)n2)cc(OC)c1OC [Fostamatinib Disodium] (10 µM),0,0,0,3,0,0,0,0,0,0
CNC(=O)c1ccc(C)c(-n2c(C)cc(OCc3ccc(F)cc3F)c(Br)c2=O)c1 (10 µM),0,0,0,0,0,0,0,0,0,0
c1cc(-c2c[nH]c3nccc(N4CCC[C@@]5(CCCCN5)C4)c23)ncn1 (10 µM),0,0,0,0,0,0,0,0,0,0
FC(F)(F)c1ccc(CNc2ccc(Cc3c[nH]c4ncccc34)cn2)cc1 (10 µM),0,0,0,0,0,0,0,0,0,0
CC(C)(C)c1nc(-c2cccc(NS(=O)(=O)c3c(F)cccc3F)c2F)c(-c2ccnc(N)n2)s1 [Dabrafenib] (2.5 µM),0,0,0,0,0,0,0,0,0,0
CN(C)CCCOc1ccc(-c2ccc3ncc4c(c3c2)n(C2CCOCC2)c(=O)n4C)cn1 (2 µM),0,0,0,0,0,0,0,0,0,0
Cn1nccc1Nc1nccc(-c2ccn([C@H](CO)c3ccc(Cl)c(F)c3)c(=O)c2)n1 [Ravoxertinib] (10 µM),0,0,0,0,0,0,0,0,0,0
COc1cc2nccc(Oc3ccc(NC(=O)NC4CC4)c(Cl)c3)c2cc1C(N)=O [Lenvatinib] (10 µM),0,0,0,0,0,0,0,0,0,0
COc1cc2ncc(-c3ccccc3)nc2cc1OC [Tyrphostin AG1296] (10 µM),0,0,0,0,0,1,0,0,0,0
C[C@@H]1CC[C@@H](Nc2nc(NC(C)(C)C)ncc2C(N)=O)C[C@H]1O (10 µM),0,0,0,0,0,0,0,0,0,0
CC1=C(C(=O)O)N2C(=O)[C@@H](NC(=O)[C@H](N)C3=CCC=CC3)[C@H]2SC1 [Cephradine] (10 µM),0,0,0,0,0,0,0,0,0,0
Nc1nc(F)nc2c1ncn2[C@@H]1O[C@H](CO)[C@@H](O)[C@@H]1O [Fludarabine] (10 µM),0,0,0,0,0,0,0,0,0,0
CNC(=O)c1cc(COc2nnc(Nc3ccc(Cl)cc3)c3ccoc23)ccn1 [Telatinib] (10 µM),0,0,0,0,0,0,0,0,0,0
Cc1ccccc1-n1c([C@H](C)Nc2nc(N)nc3nc[nH]c23)nc2cccc(C)c2c1=O [CAL-130 (Hydrochloride)] (10 µM),0,0,0,0,0,0,0,0,0,0
O=C(Nc1cn[nH]c1-c1ccccn1)c1nn(C2CCNCC2)cc1Cl (10 µM),0,0,0,0,0,0,0,0,0,0
COc1ccc(OC)c(C2C(C#N)=C(N)Oc3n[nH]c(-c4ccc5ccccc5c4)c32)c1 (stereo not drawn) (10 µM),0,0,0,0,0,0,0,0,0,0
Cn1cnc(Cn2ccc3ccc(CNCc4[nH]c5ccccc5c4[C@H]4NC(=O)c5ccc(O)cc54)cc32)c1 (10 µM),0,0,0,0,0,0,0,0,0,0

Compound,number of time points (NTRK3),number of time points (PAK4),number of time points (PBK),number of time points (PDGFRB),number of time points (PDK1),number of time points (PDPK1),number of time points (PIK4CA),number of time points (PIK4CB),number of time points (PLK1),number of time points (PRKAA1)
Cn1nccc1Nc1nccc(-c2ccn([C@H](CO)c3ccc(Cl)c(F)c3)c(=O)c2)n1 [Ravoxertinib hydrochloride] (10 µM),0,0,0,0,0,0,0,0,0,0
CC#CC(=O)Nc1ccc2ncnc(Nc3cccc(Br)c3)c2c1 (10 µM),0,0,0,1,0,0,0,0,0,0
Cc1nc(-c2cn3c(n2)-c2ccc(-c4cnn(C(C)(C)C(N)=O)c4)cc2OCC3)n(C(C)C)n1 [Taselisib] (10 µM),0,0,0,0,0,0,0,0,0,0
CC#CC(=O)N1CC[C@@H](n2c(=O)n(-c3ccc(Oc4ccccc4)cc3)c3c(N)ncnc32)C1 [Tirabrutinib (hydrochloride)] (10 µM),0,0,0,0,0,0,0,0,0,0
COc1cc(Nc2ncc(F)c(Nc3ccc4c(n3)N(COP(=O)(O)O)C(=O)C(C)(C)O4)n2)cc(OC)c1OC [Fostamatinib (disodium hexahydrate)] (10 µM),0,0,0,0,0,0,0,0,0,0
Nc1ncnc2c1c(-c1ccc(Oc3ccccc3)cc1)nn2C1CCCC1 (2.5 µM),0,0,0,0,0,0,0,0,0,0
C=CC(=O)Nc1cccc(Nc2nc(Nc3ccc(NC4CN(CCF)C4)cc3OC)ncc2C(F)(F)F)c1 (2.5 µM),0,0,0,0,0,0,0,0,0,0
O=C(NCCN1CCCC1)c1cc(-c2ccc(CN3CCOCC3)cc2)nc2ccc(F)cc12 (10 µM),0,0,0,0,0,0,0,0,0,0
C[C@]1(O)CCN(c2nc(N3C[C@H](O)[C@@H](O)C3)cc(C(F)(F)F)c2C#N)C1 (10 µM),0,0,0,0,0,0,0,0,0,0
O=C1N[C@@H](Cc2c[nH]c3ccccc23)C(=O)N2CCC[C@@H]12 [Brevianamide F] (10 µM),0,0,0,0,0,0,0,0,0,0
NCCNS(=O)(=O)c1cccc2c(Cl)cccc12 [A-3 (hydrochloride)] (10 µM),0,0,0,0,0,0,0,0,0,0
Cc1nc2sccn2c(=O)c1CCN1CCC(=C(c2ccccc2)c2ccc(F)cc2)CC1 (10 µM),0,0,0,0,0,0,0,0,0,0
c1cncc(CN2CCC(n3ncc4c(N5CCOCC5)nc(-c5ccc6[nH]ccc6c5)nc43)CC2)c1 (10 µM),4,0,0,0,0,4,3,3,0,2
CN1CCC(c2cc(-c3ccncc3)c(-c3ccc(F)cc3)[nH]2)CC1 (10 µM),0,0,0,0,0,0,0,0,2,0
Cc1[nH]c(/C=C2\C(=O)Nc3ccccc32)c(C)c1CCC(=O)O [Orantinib] (10 µM),0,0,0,0,0,0,0,0,0,0
O=Nc1c(-c2c(O)[nH]c3ccc(F)cc23)[nH]c2ccccc12 [5'-Fluoroindirubinoxime] (10 µM),3,0,0,0,0,0,0,0,0,0
CCC(C)N1c2ccccc2C(=O)N(C)c2cnc(Nc3ccc(C(=O)N4CCC(N5CCN(C)CC5)CC4)cc3OC)nc21 (stereo not drawn) (2.5 µM),0,0,0,0,0,0,0,0,0,0
C[C@@H](c1ccc(-c2ccccc2)c(F)c1)c1cc(NC(=N)N2CCOCC2)on1 [Rimacalib] (10 µM),0,0,0,0,0,0,0,0,0,0
NC(=O)c1nc(Nc2ccccc2)sc1NC(=O)C1CCCCC1 (10 µM),0,0,0,0,0,0,0,0,0,0
CCN1CCN(Cc2ccc(-c3cc4c(N[C@H](C)c5ccccc5)ncnc4[nH]3)cc2)CC1 (2.5 µM),0,0,0,1,0,2,2,3,1,1
Cc1cc(Nc2ncnc3ccc(NC4=NC(C)(C)CO4)cc23)ccc1Oc1ccn2ncnc2c1 [Tucatinib (hemiethanolate)] (2.5 µM),0,0,0,0,0,0,0,0,0,0
COc1cc2c(N3CCN(C(=O)Nc4ccc(OC(C)C)cc4)CC3)ncnc2cc1OCCCN1CCCCC1 [Tandutinib (hydrochloride)] (10 µM),,0,0,,0,0,0,0,0,0
CC(=O)NC1CC(n2cnc(NC(=O)Cc3ccc4ccccc4c3)c2)C1 (stereo not drawn) (10 µM),0,0,0,0,0,0,0,0,0,0

# A stretch from further up, for reference:
Compound,number of time points (NTRK3),number of time points (PAK4),number of time points (PBK),number of time points (PDGFRB),number of time points (PDK1),number of time points (PDPK1),number of time points (PIK4CA),number of time points (PIK4CB),number of time points (PLK1),number of time points (PRKAA1)
Cc1nc(-c2cn3c(n2)-c2ccc(-c4cnn(C(C)(C)C(N)=O)c4)cc2OCC3)n(C(C)C)n1 [Taselisib] (10 µM),0,0,0,0,0,0,0,0,0,0
CC#CC(=O)N1CC[C@@H](n2c(=O)n(-c3ccc(Oc4ccccc4)cc3)c3c(N)ncnc32)C1 [Tirabrutinib (hydrochloride)] (10 µM),0,0,0,0,0,0,0,0,0,0
